Results are given in words; binding and its absence hold for the method and conditions named. Some binding calls cover weakened binding; strength is not graded here.

This assay concerns the target Biotinylated ADDL preparations (bADDLs). Put plainly: titration ELISA, 10% biotinylated ADDL on streptavidin plates. A general note: An ELISA detects its analyte on a solid surface through an enzyme-linked reagent.

B1: humanized 26D6, veneered, HCVR Ven1 IgG1 / LCVR Ven1 Kappa (antibody, V domains shown)
VH: QVTLKESGPGIVQPSQTLSLTCSFSGFSLSTSGMGVSWIRQPSGKGLEWLAHIYWDDDKQYNPSLKSRLTISKDTSKNQVFLTITSVDTVDTATYYCVRRASSSRYDDQFDYWGQGTPLTVSS
VL: DVVMTQTPLSLPVSLGDPASISCRASQSIVHSNGNTYLEWYLQKPGQSPKLLIYRVSNRFSGVPDRFSGSGSGTDFTLKISRVEAEDLGVYFCFQVTHVPLTFGAGTKLELKR
As to B1, the binding result was “binds”.

B2: humanized 26D6, veneered, HCVR Ven1 IgG1 / LCVR Ven2 Kappa (antibody, V domains shown)
VH: QVTLKESGPGIVQPSQTLSLTCSFSGFSLSTSGMGVSWIRQPSGKGLEWLAHIYWDDDKQYNPSLKSRLTISKDTSKNQVFLTITSVDTVDTATYYCVRRASSSRYDDQFDYWGQGTPLTVSS
VL: DVVMTQTPLSLPVSLGDPASISCRASQSIVHSNGNTYLEWYLQKPGQSPKLLIYRVSNRFSGVPDRFSGSGSGTDFTLKISRVEAEDVGVYFCFQVTHVPLTFGGGTKLELKR
Consider B2, for which the binding result is on record as “binds”.
